According to paper PMC7819943, “Rice protein-binding microarrays: a tool to detect cis-acting elements near promoter regions in rice”:
Some of the results follow.

molecular target: T1, OsSMF1 (Oryza sativa, UniProt Q6ZLB0 1-436); assay: protein-binding microarray (RPBM); PBS, 2% BSA, 51.3 ng/ul salmon testes DNA, 50 uM zinc acetate, 200 nM TF, 25 C, 1 h; high values mean tight binding; settings: protein: recombinant; tags: N-terminal polyhistidine and DsRed monomer fusion (pET32a); chain copies: 2; label: CyDye5-dUTP incorporated in the synthesized complementary strand; 3' TTTTT single-stranded linker to array surface; dsDNA, one strand shown
T1 sequence: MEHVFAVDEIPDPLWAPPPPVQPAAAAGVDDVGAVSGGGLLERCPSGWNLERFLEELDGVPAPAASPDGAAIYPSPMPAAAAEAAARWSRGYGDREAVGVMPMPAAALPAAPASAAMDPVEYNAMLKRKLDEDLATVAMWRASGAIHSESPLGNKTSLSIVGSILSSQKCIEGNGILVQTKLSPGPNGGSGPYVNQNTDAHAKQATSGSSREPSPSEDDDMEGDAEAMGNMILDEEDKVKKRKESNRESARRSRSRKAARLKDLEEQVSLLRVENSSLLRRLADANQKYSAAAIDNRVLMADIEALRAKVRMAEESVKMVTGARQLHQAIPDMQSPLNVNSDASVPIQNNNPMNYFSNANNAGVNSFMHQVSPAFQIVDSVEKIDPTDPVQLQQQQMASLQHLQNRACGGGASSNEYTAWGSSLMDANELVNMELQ
Procedure, shortened: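 Binding signal is defined as the fluorescence intensity of each feature in arbitrary units, read on an Axon 4000B scanner. Transcription factors with N-terminal polyhistidine and DsRed fusions came from E. coli BL21-CodonPlus and were purified on Ni–NTA. They were incubated at 200 nM for 1 h at 25 °C on a custom Agilent array that had been made double-stranded with Cy5-dUTP, with 50 µM zinc acetate present, and the array was washed.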

Sequence | binding signal
TCTAAGCTAGTCGTGTCCTCATCACTGGCTTCGACCAATACGGAGTCACCTAGTGCAG | 3220 fluorescence intensity (a.u.)
AAGAATACACGTCACGTACACCAGCACATCTAACCCAGTCCGGAGTCACCTAGTGCAG | 13700 fluorescence intensity (a.u.)
TTCTCGCCACATCTTTATGTTAACCACTTACTCCAATTTACGGAGTCACCTAGTGCAG | 4600 fluorescence intensity (a.u.)
CATCCCAAGTTTGAATGTGAAGGTGAGGTCACCACGTAATCGGAGTCACCTAGTGCAG | 4360 fluorescence intensity (a.u.)
CGACGGCAGTTTTCGCTGCGACGAGCCCAGGATGAAGAGGCGGAGTCACCTAGTGCAG | 3420 fluorescence intensity (a.u.)
ACAAGTTGGAGCTACTTTCTTTTGAAATGACAGATCAACTCGGAGTCACCTAGTGCAG | 3250 fluorescence intensity (a.u.)
CAATCTTAGTCATGCATTTATTGTTTTATTTCCTACTGGACGGAGTCACCTAGTGCAG | 3710 fluorescence intensity (a.u.)
AAATGTAAACAATAAACAACCTCAGGTTAGAAAGCTGAGGCGGAGTCACCTAGTGCAG | 3170 fluorescence intensity (a.u.)
GTCTCCTACACCTACGACGACGTCATCTTCCTCCCGGGCTCGGAGTCACCTAGTGCAG | 6900 fluorescence intensity (a.u.)
GAGTTTGAGGAAATCGGGAATAAAATGTCAGCCCCATATTCGGAGTCACCTAGTGCAG | 26300 fluorescence intensity (a.u.)
ATTAATAGTATAGTAAGCAACTATTGTATGAATTGGCTATCGGAGTCACCTAGTGCAG | 3280 fluorescence intensity (a.u.)
GATGACATGTGGGGCCCACGTGGGTCCCACCATTTATTATCGGAGTCACCTAGTGCAG | 4730 fluorescence intensity (a.u.)
GATGTACTCGAGTATCTTCCCCTTCCTAGTTCCTTCCCTTCGGAGTCACCTAGTGCAG | 13900 fluorescence intensity (a.u.)
ATTTATATATAATACTAACTATACTACAGTATGTGGCACCCGGAGTCACCTAGTGCAG | 3300 fluorescence intensity (a.u.)
TTTAGCAGTTTCAAACACAACGCTTTCCGTGTCAGGCCGACGGAGTCACCTAGTGCAG | 3240 fluorescence intensity (a.u.)
GTTTGGGCTCAGGCATTGGCACGTGGGTCGGCATGTCACACGGAGTCACCTAGTGCAG | 4320 fluorescence intensity (a.u.)
TCCACATGCACGCGTGCAGGAACCTAGTCACCAATAACACCGGAGTCACCTAGTGCAG | 4320 fluorescence intensity (a.u.)
TCATCGCCTCTTGTGTTCGCGCGCGCGAGCAGGGTGGTTGCGGAGTCACCTAGTGCAG | 3260 fluorescence intensity (a.u.)
GGGCATGACATGTCACATATCCTTTAACCGATCGTACTATCGGAGTCACCTAGTGCAG | 7430 fluorescence intensity (a.u.)
TATGCCATCCTGACACACATGTCATTGACTCATGTGGGTCCGGAGTCACCTAGTGCAG | 6620 fluorescence intensity (a.u.)
TGTACTTGTCAGTTGTCACTCTGCTCAGCTGCGGTCGCCACGGAGTCACCTAGTGCAG | 3730 fluorescence intensity (a.u.)

Given as labelled records: part of the list above
ATTAATAGTATAGTAAGCAACTATTGTATGAATTGGCTATCGGAGTCACCTAGTGCAG
  binding signal = 3280 fluorescence intensity (a.u.)
GTTTGGGCTCAGGCATTGGCACGTGGGTCGGCATGTCACACGGAGTCACCTAGTGCAG
  binding signal = 4320 fluorescence intensity (a.u.)

More records:

Sequence | binding signal
TGTATGAGCTGACGAGGATTATTCATCCTGGTTGGTCGATCGGAGTCACCTAGTGCAG | 5120 fluorescence intensity (a.u.)
GCTTAATACAGCGCGGTAAAAGTAATTAGAGGCAGATAGTCGGAGTCACCTAGTGCAG | 20100 fluorescence intensity (a.u.)
TGTGTTCCTGTACTTTTAGTATGCTAAAGGGTAATATAGTCGGAGTCACCTAGTGCAG | 3800 fluorescence intensity (a.u.)
TCTCTGAGCCCCTGCCTTGCTGGCCCTGAACCTCTCTCTCCGGAGTCACCTAGTGCAG | 3160 fluorescence intensity (a.u.)
GATCAGTTGCACCAGAATAACCTGACGCAATGCCGGACGACGGAGTCACCTAGTGCAG | 5250 fluorescence intensity (a.u.)
TAGGTGTCCCCGTATCACGCACACAGAAGTGTAACCGCCCCGGAGTCACCTAGTGCAG | 3330 fluorescence intensity (a.u.)
CCTCTCCCTCGTCGCATCGCACCATCAATCAATCGATCGACGGAGTCACCTAGTGCAG | 3280 fluorescence intensity (a.u.)
GAGTTGTACTTGTTCTTAATTTGGCAGGGAAATCTTATGACGGAGTCACCTAGTGCAG | 21900 fluorescence intensity (a.u.)
ATGGTCGTTCTCACTTCCGTCATCAATTATTATTGATTGGCGGAGTCACCTAGTGCAG | 3280 fluorescence intensity (a.u.)
ATGACCGAGCAGAAGCATAGCTTGGGCGTCGCGTGGCCCGCGGAGTCACCTAGTGCAG | 9420 fluorescence intensity (a.u.)
GTAAAGTTGCAGTCTTGTTCTTGGCTGGCATATAGATGTGCGGAGTCACCTAGTGCAG | 3810 fluorescence intensity (a.u.)
CGTGCCCCGCCTGCGCAGCCACCTCAGCACGCGCGCGAATCGGAGTCACCTAGTGCAG | 11600 fluorescence intensity (a.u.)
TCACTAGCAGGCGGGAGGGGCGGCGACGCTAGCAGGCGAGCGGAGTCACCTAGTGCAG | 3660 fluorescence intensity (a.u.)
AGAGAGAGGGTGACGTGGACACCTGATATGTAGGTCTCACCGGAGTCACCTAGTGCAG | 15500 fluorescence intensity (a.u.)
TATTGTCAACTTATTAATCATCATATAACGGTGTTGTGTGCGGAGTCACCTAGTGCAG | 3160 fluorescence intensity (a.u.)
AATGTAATAAATTGTAGATGTCATTGCTATGCATGCATGACGGAGTCACCTAGTGCAG | 3920 fluorescence intensity (a.u.)
CTCCGTCCCTAAAAGAATGCATTTCTAGCTACGCATCTGGCGGAGTCACCTAGTGCAG | 3150 fluorescence intensity (a.u.)
ATACCTGATCCTACTTGTCATACACATATTTATCTTATAGCGGAGTCACCTAGTGCAG | 3620 fluorescence intensity (a.u.)
CACATGTTCTGAATTGAACCCATGACGCCACATCAAATTTCGGAGTCACCTAGTGCAG | 4540 fluorescence intensity (a.u.)
CGCCACCACGTCGTCGCTGATCGGAAACCGATCGGCGATTCGGAGTCACCTAGTGCAG | 3260 fluorescence intensity (a.u.)
CTTTGCCACGGCGGTCTCTCGTCCTCTTCCTCCTCTCCGCCGGAGTCACCTAGTGCAG | 4190 fluorescence intensity (a.u.)
